These results are taken from paper PMC10714642.

Amino acid sequences for entries named in this document (tags omitted).
UniProt Q15208: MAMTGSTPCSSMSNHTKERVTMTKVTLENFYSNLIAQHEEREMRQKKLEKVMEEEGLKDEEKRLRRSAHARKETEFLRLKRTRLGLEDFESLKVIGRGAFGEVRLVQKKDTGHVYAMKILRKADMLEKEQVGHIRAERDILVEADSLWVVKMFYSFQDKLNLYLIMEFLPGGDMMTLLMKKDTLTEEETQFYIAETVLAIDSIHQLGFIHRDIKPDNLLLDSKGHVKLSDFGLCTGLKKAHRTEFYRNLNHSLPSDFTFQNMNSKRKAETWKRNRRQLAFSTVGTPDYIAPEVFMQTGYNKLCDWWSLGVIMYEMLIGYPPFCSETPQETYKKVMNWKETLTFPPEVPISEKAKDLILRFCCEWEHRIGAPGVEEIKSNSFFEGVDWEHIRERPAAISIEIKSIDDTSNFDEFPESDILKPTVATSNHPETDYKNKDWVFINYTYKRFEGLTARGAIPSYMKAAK

Results are given in words; binding and its absence hold for the method and conditions named. Binding seen in cells or lysates may run through a third protein. Some results given as binding are weak or reduced against the parent protein; the word gives no strength.

This experiment concerns the target T1, cytoplasmic activation/proliferation-associated protein-1 (Caprin-1) (human (Bxpc-3 and Panc-1 cells)) (UniProt Q14444).
T1 sequence: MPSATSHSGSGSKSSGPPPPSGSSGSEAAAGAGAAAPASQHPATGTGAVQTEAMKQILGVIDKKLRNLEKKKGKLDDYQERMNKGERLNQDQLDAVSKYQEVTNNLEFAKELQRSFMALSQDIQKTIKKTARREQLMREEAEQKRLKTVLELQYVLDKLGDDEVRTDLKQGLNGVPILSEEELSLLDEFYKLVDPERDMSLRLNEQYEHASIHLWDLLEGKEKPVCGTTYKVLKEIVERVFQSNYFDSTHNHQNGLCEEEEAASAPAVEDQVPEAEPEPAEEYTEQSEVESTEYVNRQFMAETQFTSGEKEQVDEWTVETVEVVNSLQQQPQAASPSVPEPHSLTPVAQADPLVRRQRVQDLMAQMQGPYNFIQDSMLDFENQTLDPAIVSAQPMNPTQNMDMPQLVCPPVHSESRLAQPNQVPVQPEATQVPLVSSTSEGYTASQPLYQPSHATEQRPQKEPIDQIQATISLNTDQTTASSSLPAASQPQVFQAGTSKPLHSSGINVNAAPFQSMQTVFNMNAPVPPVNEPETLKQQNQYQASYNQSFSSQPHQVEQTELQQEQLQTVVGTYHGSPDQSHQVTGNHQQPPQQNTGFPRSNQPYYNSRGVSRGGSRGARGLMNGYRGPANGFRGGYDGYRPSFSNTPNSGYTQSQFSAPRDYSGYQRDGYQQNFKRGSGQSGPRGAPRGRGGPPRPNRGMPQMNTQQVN
Description: co-IP; Co-IP in Bxpc-3 and Panc-1 pancreatic cancer cell lines, detected by blot; which protein was precipitated is not told in the text shown.

Regarding “serine/threonine kinase 38 (STK38) (from UniProt Q15208 1-465)”, the binding result was “binds”.
